No constants are given. Whether binding was seen depends on the method and setting. For some assays here: In cells and extracts the contact can be indirect. Some results given as binding are weak or reduced against the parent protein; the word gives no strength.
Key:
[1] = target: 14-3-3ε (mouse (endogenous in ddY mouse cortical neurons)) (UniProt P62259); experiment: DARTS (drug affinity responsive target stability); cortical neurons treated with 10 nM GPPGPAG or vehicle for 30 min at 37°C; lysate (3.1 μg protein) proteolysed with 0.5 μg thermolysin, 50 mM Tris-HCl pH 8.0, 50 mM NaCl, 10 mM CaCl2, 30 min at 37°C; SDS-PAGE, silver staining; changed band identified by nanoLC-MS/MS; only the binder purified
[2] = target: 14-3-3ε (mouse (endogenous in ddY mouse cortical neurons)) (UniProt P62259); experiment: co-IP; cortical neurons treated with 10 nM GPPGPAG or vehicle for 60 min at 37°C; lysate (30 μg) immunoprecipitated with anti-14-3-3ε antibody on Dynabeads Protein G; eluate dot blotted with anti-GPPGPAG antibody; only the binder purified

Sequences of proteins named here, by UniProt entry; tags and fusion partners are left off.
UniProt P62259: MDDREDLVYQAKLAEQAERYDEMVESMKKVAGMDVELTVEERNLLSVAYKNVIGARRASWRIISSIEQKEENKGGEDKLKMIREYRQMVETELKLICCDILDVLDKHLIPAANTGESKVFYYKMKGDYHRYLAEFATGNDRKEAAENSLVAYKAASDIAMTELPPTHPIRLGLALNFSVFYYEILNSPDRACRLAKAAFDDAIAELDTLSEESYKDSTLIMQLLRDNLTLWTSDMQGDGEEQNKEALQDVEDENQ

GPPGPAG
binding [1]: binds | binding [2]: binds
